Values from PubChem BioAssay AID720505 (Drosophila RNAi Screening Center, 2013).
The screen tested about 20,000 reagents; this is an unselected part of those with a known target gene and a result. Over the whole deposit, about 2,100 (10%) were called active. 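Raw plate signals without normalisation; calls rest on control-based scores that were not deposited; replicate 2 separates called from uncalled poorly.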 A plus sign joins genes that one reagent is predicted to hit. Not stated in the record: the amount of reagent, the time to read-out.

Aim: 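Knock-downs that reduce calcium influx once internal stores are emptied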 (primary screen)
Cell system: Drosophila S2R+ cells
Reagents: long dsRNA against Drosophila genes
Challenge: thapsigargin (2 µM) in calcium-free buffer to empty internal stores, then 2 mM calcium added back
Measurement: 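Fluo-4 signal in 384-well plates read on a FLIPR after thapsigargin (2 µM, calcium-free) store depletion and 2 mM calcium add-back; unnormalised mean endpoint per well; screen run twice, selected wells retested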
Reading the numbers: calcium signal and retest calcium signal: higher = more calcium entry after store depletion
Call rule: 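About 1500 genes called as lowering calcium entry, by varying amounts, judged against per-plate control wells with STIM1 as positive and Rho1 as negative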
Meaning of the calls: active = called as lowering calcium entry; inactive = not called

no.	predicted target	dsRNA	calcium signal, replicate 1	calcium signal, replicate 2	retest calcium signal, replicate 1	retest calcium signal, replicate 2	Call
1	CG11262	DRSC09831	71.1	127			inactive
2	TRAM	DRSC18178	97.2	112			inactive
3	TRAM	DRSC18651	141	132			inactive
4	Cpr47Ec	DRSC07332	72.4	163			inactive
5	CG11353	DRSC08182	76	138			inactive
6	CG8468	DRSC07190	102	184			inactive
7	Ube4B	DRSC03277	86.5	88.9			inactive
8	Teh2	DRSC08458	66.4	71.4			active
9	CG8915	DRSC20119	121	102			inactive
10	CG5404	DRSC15793	93.2	108	67.7	94	inactive
11	PPO2	DRSC07102	99	111			inactive
12	CG18004	DRSC06705	157	132			inactive
13	prg	DRSC03324	179	162			inactive
14	tio	DRSC03739	139	135			inactive
15	CG42500	DRSC14822	92.3	108			inactive
16	CG17636	DRSC20648	130	80.3			inactive
17	Dlish	DRSC06016	144	143			inactive
18	Leash	DRSC15617	183	87.7			inactive
19	erm	DRSC00700	135	145			inactive
20	ear	DRSC15675	128	128			inactive
21	COX6AL2 + Ir75d	DRSC10081	75.4	115			inactive
22	Nf-YC	DRSC18272	191	135			inactive
23	Nf-YC	DRSC23106	164	161			inactive
24	Rab21	DRSC20968	69.4	210			active
25	CG43902	DRSC17850	95.2	84.7			inactive
26	CG43902	DRSC17999	92.2	87.7			inactive
27	Max	DRSC11218	176	105			inactive
28	CG13634	DRSC14635	142	92.4			inactive
29	CG34427	DRSC09978	87.5	68			inactive
30	dila	DRSC06607	107	138			inactive
31	CG10576	DRSC09745	74.5	106			active
32	GstE6	DRSC06676	168	184			inactive
33	Ir87a	DRSC14836	79.3	202			inactive
34	CG12155	DRSC17826	96.6	114			inactive
35	CG12155	DRSC23294	117	141			inactive

No new results follow: 5 of the entries above.
no.	predicted target	dsRNA	calcium signal, replicate 1	calcium signal, replicate 2	retest calcium signal, replicate 1	retest calcium signal, replicate 2	Call
13	prg	DRSC03324	179	162			inactive
14	tio	DRSC03739	139	135			inactive
15	CG42500	DRSC14822	92.3	108			inactive
16	CG17636	DRSC20648	130	80.3			inactive
17	Dlish	DRSC06016	144	143			inactive
